Consider two sequences from PMC8184850, “Cryo-EM structure of TFIIH/Rad4–Rad23–Rad33 in damaged DNA opening in nucleotide excision repair” (Nature Communications, 2021).

This data set deals with coreTFIIH (7 subunits) + Rad4-Rad23. The data set can be described thus: EMSA. The following applies: AMP-PNP, 2 mM Mg2+, no co-complex, binds either TFIIH or Rad4-Rad23, EMSA: 20 mM HEPES, 100 mM K-acetate, 2 mM Mg-acetate, 5 mM DTT, room temperature 20 min, 250 nM each component, 0.2x TBE agarose gel at 4 C (pH not stated in this buffer), native protein, label: 32P 5' end (T4 PNK) in EMSA. (In general: A gel shift assay detects complexes by their altered migration in electrophoresis.)

Construct, isoform or probe ends are uncertain for at least one entry. A negative result means that nothing was seen under these conditions.

Take “CATCCCACTACCTGTCCATCTTCACTCAACTATCACCC (double strand) [-15/+24 AAF]”: for the setting “N-2-acetylaminofluorene adduct on the single G of strand 1 (nt 14), printed strand spans -13 to +24”, the binding result was “no binding”.
Take “CCATCCCACTACCTGTCCATCTTCACTCA (double strand) [-14/+14 AAF]”: the binding result (N-2-acetylaminofluorene adduct on the single G of strand 1 (nt 15, position 0)) is on record as “no binding”.
